This data set can be described thus: Caco-2 cell permeability assay. The class given is in vitro ADME. To be noted: human; for Papp at 90 min, 10 μM: Caco-2, Papp. Background: Caco-2 cells form a polarised layer with tight junctions and transporters.

The term efflux ratio denotes a quotient of directional permeabilities that is used to spot active efflux. The Papp is the rate of passage across a membrane or cell layer, normalised by area and donor concentration. `CC(C)NCC(O)COc1ccc(CC(N)=O)cc1` (centres unmarked) [Atenolol]: where the note is “Caco-2”, the efflux ratio at 90 min, 10 μM came to 2. The Papp at 90 min, 10 μM by setting is: (Replicate 1, Direction A‐B) 0.5 ×10⁻⁶ cm/s; (Replicate 1, Direction B‐A) 0.9 ×10⁻⁶ cm/s; (Replicate 2, Direction A‐B) 0.4 ×10⁻⁶ cm/s; (Replicate 2, Direction B‐A) 1 ×10⁻⁶ cm/s.

These data come from article PMC8518639 (Chemmedchem, 2021).
